These are yes or no findings as the source states them, for the method shown. For some of these results: Binding seen in cells or lysates may run through a third protein. Some binding calls cover weakened binding; strength is not graded here. Where a sequence is shown, tags or fusion partners need not be part of it.

By UniProt entry, the sequences of proteins in these tests, tags left out. Where a name states a change or a piece, a line headed by the entry shows the natural chain unless it says otherwise. Residues count along the entry.
UniProt Q99731: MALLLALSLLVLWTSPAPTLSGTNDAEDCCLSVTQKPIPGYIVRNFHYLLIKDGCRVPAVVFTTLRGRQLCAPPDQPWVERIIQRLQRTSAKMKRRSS
UniProt O00585: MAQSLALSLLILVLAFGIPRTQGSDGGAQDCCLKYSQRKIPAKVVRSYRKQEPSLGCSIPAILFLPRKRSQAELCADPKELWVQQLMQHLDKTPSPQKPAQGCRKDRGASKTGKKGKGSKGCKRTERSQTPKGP
UniProt Q9Y258, residues 24-94: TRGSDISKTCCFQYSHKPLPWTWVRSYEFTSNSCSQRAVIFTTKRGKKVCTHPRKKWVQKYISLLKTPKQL
UniProt Q99616: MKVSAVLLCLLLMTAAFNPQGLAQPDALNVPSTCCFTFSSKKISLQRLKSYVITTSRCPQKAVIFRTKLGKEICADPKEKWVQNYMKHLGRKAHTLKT
UniProt P78556, residues 27-96: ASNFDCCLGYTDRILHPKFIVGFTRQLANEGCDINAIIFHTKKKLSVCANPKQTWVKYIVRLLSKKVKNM
UniProt P80075, residues 24-99: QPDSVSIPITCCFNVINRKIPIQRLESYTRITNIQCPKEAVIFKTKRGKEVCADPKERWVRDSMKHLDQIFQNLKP
UniProt P80098, residues 24-99: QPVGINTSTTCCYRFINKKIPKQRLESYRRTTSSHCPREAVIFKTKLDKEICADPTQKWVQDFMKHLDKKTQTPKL
UniProt P48061, residues 1-89: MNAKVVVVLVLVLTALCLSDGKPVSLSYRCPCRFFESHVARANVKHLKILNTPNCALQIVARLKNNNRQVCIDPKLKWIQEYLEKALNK
UniProt P13500: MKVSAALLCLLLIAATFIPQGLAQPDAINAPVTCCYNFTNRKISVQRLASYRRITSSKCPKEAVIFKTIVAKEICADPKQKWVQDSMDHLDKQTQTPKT
UniProt P10145: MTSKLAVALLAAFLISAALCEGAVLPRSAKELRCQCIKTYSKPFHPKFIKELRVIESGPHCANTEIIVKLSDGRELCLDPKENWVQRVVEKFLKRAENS

This is an account of results in patent publication US20060270596A1.

Assay [1] has as its target T1, chemokine CCL18 (UniProt P55774).
T1 sequence (looked up): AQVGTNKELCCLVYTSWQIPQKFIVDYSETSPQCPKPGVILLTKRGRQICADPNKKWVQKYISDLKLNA
The assay is described as follows: in vitro pull-down of 35S-labelled in vitro translated ligand (as Example 33); grade from percentage bound of total labelled ligand.

Assay [2] addresses human chemokine ELC/CCL19, mature form (amino acids 22-98) (human) (UniProt Q99731). Described as above.
The target in assay [3] is human chemokine SLC/CCL21, mature form (amino acids 24-134) (human) (UniProt O00585). The description is as above.
Assay [4] concerns the target T2, chemokine CXCL11 (UniProt O14625).
T2 sequence (looked up): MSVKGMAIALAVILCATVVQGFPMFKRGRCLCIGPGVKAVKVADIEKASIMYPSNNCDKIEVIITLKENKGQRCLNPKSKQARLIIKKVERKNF
The assay is described as above.

Assay [5] concerns the target T3, chemokine CXCL14 (UniProt O95715).
T3 sequence (looked up): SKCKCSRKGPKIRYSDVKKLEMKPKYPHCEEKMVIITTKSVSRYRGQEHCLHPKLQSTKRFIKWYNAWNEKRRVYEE
The assay is described as above.

Assay [6] has as its target T4, chemokine CCL14 (UniProt Q16627).
T4 sequence (looked up): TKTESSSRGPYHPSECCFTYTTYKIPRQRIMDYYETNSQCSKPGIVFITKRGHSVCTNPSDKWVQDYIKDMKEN
Described as above.

In assay [7] the target is T5, human chemokine MIG/CXCL9, mature form (amino acids 23-125) (human) (UniProt Q07325).
T5 sequence: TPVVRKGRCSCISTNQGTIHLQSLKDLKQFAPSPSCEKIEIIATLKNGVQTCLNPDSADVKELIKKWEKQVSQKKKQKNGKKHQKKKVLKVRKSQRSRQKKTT
The description is as above.

In assay [8] the target is chemokine CCL26 (UniProt Q9Y258). Described as above.
Assay [9] addresses T6, chemokine CCL1 (UniProt P22362).
T6 sequence (looked up): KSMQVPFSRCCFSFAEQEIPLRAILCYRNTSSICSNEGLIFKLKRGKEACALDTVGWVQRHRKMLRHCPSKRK
The description is as above.

For assay [10], the target named is T7, chemokine CXCL3 (UniProt P19876).
T7 sequence (looked up): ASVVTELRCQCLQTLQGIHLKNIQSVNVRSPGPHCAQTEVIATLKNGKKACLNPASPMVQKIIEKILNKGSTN
Described as above.

The target of assay [11] is chemokine CCL13 (UniProt Q99616). The assay is described as above.
The target in assay [12] is chemokine CCL20 (UniProt P78556). The description is as above.
In assay [13] the target is chemokine CCL8 (UniProt P80075). The description is as above.
In assay [14] the target is chemokine CCL7 (UniProt P80098). The description is as above.
For assay [15], the target named is chemokine CXCL12 (UniProt P48061). Described as above.
Assay [16] concerns the target T8, chemokine CXCL13 (UniProt O43927).
T8 sequence (looked up): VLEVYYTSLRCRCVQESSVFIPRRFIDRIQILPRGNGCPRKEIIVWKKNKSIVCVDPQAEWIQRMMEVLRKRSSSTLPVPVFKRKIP
The assay is described as above.

Assay [17] has as its target T9, chemokine CXCL2 (UniProt P19875).
T9 sequence (looked up): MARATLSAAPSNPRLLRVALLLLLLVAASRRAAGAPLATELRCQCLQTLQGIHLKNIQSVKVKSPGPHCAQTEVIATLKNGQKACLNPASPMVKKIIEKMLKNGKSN
The assay is described as above.

Assay [18] addresses human chemokine SLC/CCL21, mature form (amino acids 24-134) (human) (UniProt O00585). Nature of the assay: GST pull-down, 35S-labelled in vitro translated chemokine.
Assay [19] addresses T5, human chemokine MIG/CXCL9, mature form (amino acids 23-125) (human). The assay is described as above.
For assay [20], the target named is chemokine CXCL12 (UniProt P48061). The description is as above.
Assay [21] deals with chemokine CCL2 (UniProt P13500). The assay is described as above.
The target of assay [22] is human chemokine SLC/CCL21, mature form (amino acids 24-134) (human) (UniProt O00585). Nature of the assay: GST pull-down: in vitro translated 35S-labelled protein on the GST fusion immobilised on glutathione sepharose, SDS-PAGE, fluorography.
The target in assay [23] is T2, chemokine CXCL11. The assay is described as above.
For assay [24], the target named is chemokine CCL13 (UniProt Q99616). Described as above.
Assay [25] concerns the target T10, THAP1-C3 deletion mutant (amino acids 143-213) (human) (UniProt Q9NVV9).
T10 sequence: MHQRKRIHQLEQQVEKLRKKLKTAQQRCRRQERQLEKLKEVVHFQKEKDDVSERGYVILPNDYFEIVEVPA
The description is as above.

Assay [26] addresses human chemokine SLC/CCL21, mature form (amino acids 24-134) (human) (UniProt O00585). Nature of the assay: GST pull-down: in vitro translated 35S-labelled chemokine or cytokine on the GST fusion immobilised on glutathione sepharose, SDS-PAGE, fluorography.
Assay [27] addresses T5, human chemokine MIG/CXCL9, mature form (amino acids 23-125) (human). The description is as above.
Assay [28] concerns the target chemokine CXCL12 (UniProt P48061). Described as above.
The target of assay [29] is chemokine CCL2 (UniProt P13500). The assay is described as above.
Assay [30] has as its target human chemokine SLC/CCL21, mature form (amino acids 24-134) (human) (UniProt O00585). The assay is described as follows: GST pull-down, 35S-labelled in vitro translated molecule.
The target of assay [31] is chemokine CXCL8 (UniProt P10145). The description is as above.
Assay [32] concerns the target T2, chemokine CXCL11. The assay is described as above.
Assay [33] has as its target chemokine CCL13 (UniProt Q99616). The description is as above.
Assay [34] concerns the target T10, THAP1-C3 deletion mutant (amino acids 143-213) (human). The description is as above.

B1: THAP1 chemokine-binding domain/IgG1-Fc fusion constructed as described in Example 18B (THAP1 amino acids 140-213 fused to human IgG1-Fc) (Fc fusion, not shown: a dimerising Fc or GST)
chain: EDTMHQRKRIHQLEQQVEKLRKKLKTAQQRCRRQERQLEKLKEVVHFQKEKDDVSERGYVILPNDYFEIVEVPA
B1: the binding result in assay [1], in [2], in [3], in assay [4], in [5] and in assay [6] was “binds” throughout. Also, the binding result in assay [7], in assay [8], in [9], in assay [10], in [11] and in [12] was “binds” in each case. The binding entry in [13], in assay [14], in assay [15], in assay [16] and in assay [17] was “binds” each time.

B2: GST-THAP3 181-284 (chemokine-binding domain of THAP3) (protein, not shown: a dimerising Fc or GST; small tags and cut ends)
chain: LPPNAEGHVKQVSPRRPQATEAVGRPTGPAGLRRTPNKQPSDHSYALLDLDSLKKKLFLTLKENEKLRKRLQAQRLVMRRMSSRLRACKGHQGLQARLGPEQQS
For B2, the binding entry in [18], in assay [19], in assay [20], in assay [21], in assay [22] and in assay [23] was “binds” throughout. Moreover, the binding entry in assay [24], in assay [25], in assay [26], in [27], in [28] and in assay [29] was “binds” each time. The binding entry in assay [30] is listed as “binds”; in assay [31] it was “no binding”; in assay [32] it was “binds”; in assay [33], “binds”; in assay [34] it was “binds”.
